Values from PubChem BioAssay AID1259308 (NCATS, 2017).
This is a random part of about 59,000 deposited reagents. In the full data, about 1,510 (2.6%) got an active call. 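Calls use total luciferase alone and ignore viability, so some active siRNAs may act by altering cell number.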 A number with no mark means an inactive call. Not all columns of the deposit are shown.

- Screen: 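Genes whose loss raises luciferase production in HEK293 cells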 (primary screen)
- Cells: human HEK293 embryonic kidney cells stably expressing firefly luciferase (HEK-CMV-Luc2-Hygro)
- Reagents: single siRNA against human genes, 0.8 pmol siRNA per well
- Timing: 72 h
- Read-out: 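Luciferase light (ONE-Glo) measured on one replicate plate set and viability (CellTiter-Glo) on the other, scaled to a negative control siRNA, with robust z-scores and luciferase per cell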
- Reading the numbers: total luciferase, z-score: higher = more reporter protein produced
- Rule for the call: 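An siRNA counts as active if its total luciferase robust z-score exceeds 3; genes with two or more such siRNAs out of three were retested with fresh siRNAs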
- Meaning of the calls: active = raised luciferase; inactive = no rise

With XXYLT1 [SID160759180], what was measured?
total luciferase, z-score: -1.01

How did the screen score XXYLT1 [SID160759181]?
total luciferase, z-score: -0.0869

With XXYLT1 [SID160759183], how do the results read?
total luciferase, z-score: 0.986

For HIP1 [SID160774943], what was measured?
total luciferase, z-score: 0.443

With HIP1 [SID160774944], how do the results read?
total luciferase, z-score: -0.459

For HIP1 [SID160774945], how do the results read?
total luciferase, z-score: -0.626

What is on record for DPP6 [SID160734187]?
total luciferase, z-score: -0.806

What did the screen give for DPP6 [SID160756007]?
total luciferase, z-score: -0.21

What is on record for DPP6 [SID160756017]?
total luciferase, z-score: -0.781

Which result is listed for DPP6 [SID160756027]?
total luciferase, z-score: 0.18

What did the screen give for DPP6 [SID160771058]?
total luciferase, z-score: 4.8 (active)

For DPP6 [SID160771059], how do the results read?
total luciferase, z-score: -0.273

What is on record for GNB2 [SID160723783]?
total luciferase, z-score: -0.463

What is on record for GNB2 [SID160723784]?
total luciferase, z-score: 0.272

How did the screen score GNB2 [SID160730986]?
total luciferase, z-score: -0.606

With DTNB [SID160756937], what was measured?
total luciferase, z-score: -0.0207

What did the screen give for DTNB [SID160756948]?
total luciferase, z-score: -0.902

For DTNB [SID160756958], what was measured?
total luciferase, z-score: 0.495

Which result is listed for LAMTOR4 [SID160733242]?
total luciferase, z-score: -0.556

What did the screen give for LAMTOR4 [SID160766211]?
total luciferase, z-score: -1.11

With LAMTOR4 [SID160766212], what was measured?
total luciferase, z-score: -1.78

How did the screen score ZG16 [SID160756121]?
total luciferase, z-score: 0.647

With ZG16 [SID160756122], what was measured?
total luciferase, z-score: -1.19

For ZG16 [SID160756123], what was measured?
total luciferase, z-score: 0.398

With ZG16 [SID160771072], what does the deposit list?
total luciferase, z-score: 0.96

Which result is listed for ZG16 [SID160771073]?
total luciferase, z-score: 0.662

What did the screen give for ZG16 [SID160771074]?
total luciferase, z-score: 1.62

How did the screen score SPMIP8 [SID160765302]?
total luciferase, z-score: -0.782

Which result is listed for SPMIP8 [SID160765303]?
total luciferase, z-score: -0.287

What did the screen give for SPMIP8 [SID160765304]?
total luciferase, z-score: 0.689

What is on record for GOLGB1 [SID160772563]?
total luciferase, z-score: -0.0575

For GOLGB1 [SID160772566], what was measured?
total luciferase, z-score: 0.0106

Which result is listed for GOLGB1 [SID160772576]?
total luciferase, z-score: 2.03

3 entries from above, reformatted:
| gene knocked down | PubChem SID | total luciferase, z-score |
| --- | --- | --- |
| LAMTOR4 | SID160766212 | -1.78 |
| ZG16 | SID160756121 | 0.647 |
| ZG16 | SID160756122 | -1.19 |
